Consider one compound from patent publication US10632111B2, “Donepezil derivative and use thereof” (priority 2014, dated 2020).

This series in a line: Pharmacokinetic properties in SD rats after intramuscular injection. The conditions noted are these: male, rat, in vivo, im, 90 mg/kg. From the text: Pharmacokinetic Properties of Compounds of the Present Invention Administered to Rats
In the present embodiment, male SD rats (SPF grade), aged […] and weighing 180 to 220 g, were purchased from Shanghai Slack laboratory Animal Co., Ltd. Throughout the process of the experiment, give the rats free access to food and water.
Adopting grouping of random grouping design, the SD rats for experiments were grouped according to gender and body weight.
The whole blood was collected and placed on ice, followed by centrifugation at 4° C., 8000 rpm and 5 min to collect plasma The plasma was transferred to a 96-well plate and stored at −20° C. until LC-MS/MS examination. Drug concentrations in EDTA (4 mM) anticoagulated plasma of SD rats were determined using LC/MS/MS (Agilent6460). Using WinNonlin 5.2 software, calculate respective relevant pharmacokinetic parameters of each group at each time point after administration according to statistical moment theory.
t1/2 was calculated by the formula t1/2=0.693/λz; λz is an end elimination rate constant derived from the logarithmic concentration—the straight part of the end of time curve, which can be derived from the slope of the logarithmic concentration—the straight part of the end of time curve.

For `COc1cc2c(cc1OC)C(=O)C(CC1CCN(Cc3ccccc3)CC1)C2` (stereo not drawn) [donepezil, Donepezil], the peak level (Cmax) was 361 ng/mL, the time to peak (Tmax) worked out at 0.67 h and the half-life was 13.3 h.

By Cmax is commonly meant the peak of the concentration-time curve. For orientation: Tmax means the time from dosing to the highest level. The term half-life denotes how long it takes for the measured level to halve.
